Here are results for one compound from US8748422B2, “Pharmaceutical compositions containing quinazoline derivatives for treating as serotonin receptor antagonist” (Korea Institute of Science and Technology, priority 2007, dated 2014).

By UniProt entry, the sequences of proteins in these tests, tags left out. Residues count along the entry.
UniProt P46098, 24-478 limits assumed: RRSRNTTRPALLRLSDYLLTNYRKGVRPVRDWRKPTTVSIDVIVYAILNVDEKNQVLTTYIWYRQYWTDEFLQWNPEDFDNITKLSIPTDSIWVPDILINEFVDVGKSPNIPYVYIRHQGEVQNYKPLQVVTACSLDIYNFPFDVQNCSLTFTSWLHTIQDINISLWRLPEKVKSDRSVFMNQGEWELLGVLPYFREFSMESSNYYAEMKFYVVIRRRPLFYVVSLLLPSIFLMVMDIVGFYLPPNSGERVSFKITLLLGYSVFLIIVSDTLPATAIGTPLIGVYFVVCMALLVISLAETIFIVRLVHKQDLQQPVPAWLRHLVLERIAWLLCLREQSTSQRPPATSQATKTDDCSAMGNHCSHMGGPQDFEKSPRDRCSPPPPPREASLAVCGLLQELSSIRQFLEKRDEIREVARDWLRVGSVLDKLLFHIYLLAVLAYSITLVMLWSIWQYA

The match of structure and compound is tentative.

In the assay the target is serotonin 5-HT3A receptor (Homo sapiens, UniProt P46098). The assay is described as follows: Assay for 5-HT3A receptor: two-electrode voltage clamp in Xenopus oocytes, inhibition of 5-HT-induced inward current. The assay is classed as cell-based. The note with it: 5-HT3A receptor expressed in Xenopus laevis oocytes. A general note: Two-electrode voltage clamp holds a large cell at a set potential and records current.

As to `CC1CCCCN1CCCNC(=O)c1ccc2c(=O)n(Cc3ccc(Cl)cc3)c(=O)[nH]c2c1` (stereo not drawn), where the note is “from concentration-response curves”, the “nH (Hill coefficient)” value worked out at 1.1 ± 0.4. Further, the Vmax (maximum inhibition value) (inward current induced by 5-HT (1 μM), from concentration-response curves) turned out to be 86.5%. In addition, the IC50 (read-out: IC50 (50% inhibitory concentration), inward current induced by 5-HT (1 μM), test concentrations 0.003-100 μM) amounted to 5.9 µM.
